Source: patent publication US12351591B2, “KRas inhibitors” (ELI LILLY AND COMPANY, priority 2022, dated 2025)
Some results were stated once for a whole list of compounds, not compound by compound.

Sequences of proteins named here, by UniProt entry; tags and fusion partners are left off. Residues count along the entry.
UniProt P01116, 1-188 isoform P01116-2 G12V: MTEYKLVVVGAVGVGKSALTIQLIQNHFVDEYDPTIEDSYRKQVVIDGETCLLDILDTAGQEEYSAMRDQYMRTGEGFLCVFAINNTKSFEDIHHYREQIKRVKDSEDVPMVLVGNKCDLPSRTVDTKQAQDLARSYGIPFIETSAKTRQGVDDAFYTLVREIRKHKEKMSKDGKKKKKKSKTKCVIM
UniProt P01116, 1-188 isoform P01116-2 G12D: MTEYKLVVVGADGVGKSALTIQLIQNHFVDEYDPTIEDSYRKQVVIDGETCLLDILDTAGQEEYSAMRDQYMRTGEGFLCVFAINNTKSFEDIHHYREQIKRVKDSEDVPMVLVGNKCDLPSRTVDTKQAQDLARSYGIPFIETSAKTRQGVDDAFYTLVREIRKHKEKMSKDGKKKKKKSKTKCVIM
UniProt P01116, 1-188 isoform P01116-2 G12C: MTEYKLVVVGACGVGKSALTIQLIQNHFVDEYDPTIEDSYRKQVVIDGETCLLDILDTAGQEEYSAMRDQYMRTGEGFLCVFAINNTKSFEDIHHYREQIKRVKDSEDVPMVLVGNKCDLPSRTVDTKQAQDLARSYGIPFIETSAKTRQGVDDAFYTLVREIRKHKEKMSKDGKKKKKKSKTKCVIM
UniProt P01116, 1-188 isoform P01116-2: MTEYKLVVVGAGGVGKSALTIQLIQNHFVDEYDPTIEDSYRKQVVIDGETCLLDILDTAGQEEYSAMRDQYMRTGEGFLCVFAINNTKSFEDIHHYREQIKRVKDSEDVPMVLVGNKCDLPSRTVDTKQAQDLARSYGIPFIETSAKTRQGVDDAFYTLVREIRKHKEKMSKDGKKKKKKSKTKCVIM

Assays:
KRAS G12V = target: T1, KRAS G12V (Homo sapiens, UniProt P01116, G12V); assay: Cellular Phospho-ERK AlphaLISA, SW620 cells (KRAS G12V); format: cell-based; details: 2 h, read-out: relative IC50, reduction of phosphorylated ERK-1/2 in cells expressing KRAS G12V
T1 construct: endogenous in cells; host or cells: SW620

HRAS = HRAS (Homo sapiens, UniProt P01112); assay: Cellular Phospho-ERK AlphaLISA, MEF-HRAS cells (RAS-less MEFs expressing HRAS only); format: cell-based, mouse; details: 2 h, read-out: relative IC50, phospho-ERK, MEF-HRAS
NRAS = NRAS (Homo sapiens, UniProt P01111); assay: Cellular Phospho-ERK AlphaLISA, MEF-NRAS cells (RAS-less MEFs expressing NRAS only); format: cell-based, mouse; details: 2 h, read-out: relative IC50, phospho-ERK, MEF-NRAS
KRas G12D = target: T2, KRas G12D (Homo sapiens, UniProt P01116, G12D); assay: Cellular Phospho-ERK AlphaLISA, HPAC cells (KRAS G12D); format: cell-based; details: 2 h, read-out: relative IC50, reduction of phosphorylated ERK-1/2 in cells expressing KRAS G12D
T2 construct: host or cells: PANC-1

KRAS G12C = target: T3, KRAS G12C (Homo sapiens, UniProt P01116, G12C); assay: Cellular Phospho-ERK AlphaLISA, NCI-1373 cells (KRAS G12C); format: cell-based; details: 2 h, read-out: relative IC50, reduction of phosphorylated ERK-1/2 in cells expressing KRAS G12C
T3 construct: endogenous in cells; host or cells: NCI-1373

KRAS WT = target: T4, KRAS WT (Homo sapiens, UniProt P01116); assay: Cellular Phospho-ERK AlphaLISA, MKN45 cells (WT KRAS amplification); format: cell-based; details: cells expressing KRAS WT, 2 h; read-out: relative IC50, reduction of phosphorylated ERK-1/2 in cells expressing KRAS WT
T4 construct: or amplification of the KRAS gene; endogenous in cells; host or cells: MKN45

Row | SMILES | IC50 (KRAS G12V) [nM] | IC50 (HRAS) [nM] | IC50 (NRAS) [nM] | IC50 (KRas G12D) [nM] | IC50 (KRAS G12C) [nM] | IC50 (KRAS WT) [nM]
1 | CN1C[C@H](O)C[C@H]1COc1ncc2c3c(c(-c4ncc(F)c5sc(N)c(C#N)c45)c(F)c2n1)COC3 [Example 289, 2-Amino-7-fluoro-4-[5-fluoro-3-[[(2S,4R)-4-hydroxy-1-methyl-pyrrolidin-2-yl]methoxy]-7,9-dihydrofuro[3,4-f]quinazolin-6-yl]thieno[3,2-c]pyridine-3-carbonitrile] | < 500 | > 2000 | > 2000 | < 500 | < 500 | < 500
2 | CN1CCOC[C@@H]1COc1ncc2c3c(c(-c4ncc(F)c5sc(N)c(C#N)c45)c(F)c2n1)COC3 [Example 302, 2-Amino-7-fluoro-4-[5-fluoro-3-[[(3R)-4-methylmorpholin-3-yl]methoxy]-7,9-dihydrofuro[3,4-f]quinazolin-6-yl]thieno[3,2-c]pyridine-3-carbonitrile] | < 500 | > 2000 | > 2000 | < 500 | < 500 | < 500
3 | CN1C[C@@H](C(F)(F)F)C[C@H]1COc1ncc2c3c(c(-c4ncc(F)c5sc(N)c(C#N)c45)c(F)c2n1)COC3 [Example 295, 2-Amino-7-fluoro-4-[5-fluoro-3-[[(2S,4S)-1-methyl-4-(trifluoromethyl)pyrrolidin-2-yl]methoxy]-7,9-dihydrofuro[3,4-f]quinazolin-6-yl]thieno[3,2-c]pyridine-3-carbonitrile] | < 500 | > 2000 | > 2000 | < 500 | < 500 | < 500
4 | CN1CC[C@@H]1COc1ncc2c3c(c(-c4ncc(F)c5sc(N)c(C#N)c45)c(F)c2n1)COC3 [Example 308, 2-Amino-7-fluoro-4-[5-fluoro-3-[[(2R)-1-methylazetidin-2-yl]methoxy]-7,9-dihydrofuro[3,4-f]quinazolin-6-yl]thieno[3,2-c]pyridine-3-carbonitrile] | < 500 | > 2000 | > 2000 | < 500 | < 500 | < 500
5 | CO[C@H]1C[C@@H](COc2ncc3c4c(c(-c5ncc(F)c6sc(N)c(C#N)c56)c(F)c3n2)COC4)N(C)C1 [Example 283, 2-Amino-7-fluoro-4-[5-fluoro-3-[[(2S,4S)-4-methoxy-1-methyl-pyrrolidin-2-yl]methoxy]-7,9-dihydrofuro[3,4-f]quinazolin-6-yl]thieno[3,2-c]pyridine-3-carbonitrile] | < 500 | > 2000 | > 2000 | < 500 | < 500 | < 500
6 | N#Cc1c(N)sc2c(F)cnc(-c3c4c(c5cnc(OCC6(F)CNC6)nc5c3F)COC4)c12 [Example 281, 2-Amino-7-fluoro-4-[5-fluoro-3-[(3-fluoroazetidin-3-yl)methoxy]-7,9 dihydrofuro[3,4-f]quinazolin-6-yl]thieno[3,2-c]pyridine-3-carbonitrile] | < 500 | > 2000 | > 2000 | < 500 | < 500 | < 500
7 | N#Cc1c(N)sc2c(F)cnc(-c3c4c(c5c(N6CCC6)nc(OC[C@@]67CCCN6C[C@H](F)C7)nc5c3F)COC4)c12 [Example 318, 2-Amino-4-[1-(azetidin-1-yl)-5-fluoro-3-[[(2R,8S)-2-fluoro-1,2,3,5,6,7-hexahydropyrrolizin-8-yl]methoxy]-7,9-dihydrofuro[3,4-f]quinazolin-6-yl]-7-fluoro-thieno[3,2-c]pyridine-3-carbonitrile] | < 500 | > 2000 | > 2000 | < 500 | < 500 | < 500
8 | N#Cc1c(N)sc2c(F)cnc(-c3c4c(c5cnc(OC[C@H]6C[C@@H](O)C6)nc5c3F)COC4)c12 [Example 300, 2-Amino-7-fluoro-4-[5-fluoro-3-[(3-hydroxycyclobutyl)methoxy]-7,9-dihydrofuro[3,4-f]quinazolin-6-yl]thieno[3,2-c]pyridine-3-carbonitrile] | < 500 | > 2000 | > 2000 | < 500 | < 500 | < 500
9 | CN1CCO[C@@H](COc2ncc3c4c(c(-c5ncc(F)c6sc(N)c(C#N)c56)c(F)c3n2)COC4)C1 [Example 310, 2-Amino-7-fluoro-4-[5-fluoro-3-[[(2R)-4-methylmorpholin-2-yl]methoxy]-7,9-dihydrofuro[3,4-f]quinazolin-6-yl]thieno[3,2-c]pyridine-3-carbonitrile] | < 500 | > 2000 | > 2000 | < 500 | < 500 | < 500
10 | CN1CCO[C@H](COc2ncc3c4c(c(-c5ncc(F)c6sc(N)c(C#N)c56)c(F)c3n2)COC4)C1 [Example 311, 2-Amino-7-fluoro-4-[5-fluoro-3-[[(2S)-4-methylmorpholin-2-yl]methoxy]-7,9-dihydrofuro[3,4-f]quinazolin-6-yl]thieno[3,2-c]pyridine-3-carbonitrile] | < 500 | > 2000 | > 2000 | < 500 | < 500 | < 500
11 | CN1CCC(F)(F)C(COc2ncc3c4c(c(-c5ncc(F)c6sc(N)c(C#N)c56)c(F)c3n2)COC4)C1 (stereo not drawn) [Example 282, 2-Amino-4-[3-[(4,4-difluoro-1-methyl-3-piperidyl)methoxy]-5-fluoro-7,9-dihydrofuro[3,4-f]quinazolin-6-yl]-7-fluoro-thieno[3,2-c]pyridine-3-carbonitrile] | < 500 | > 2000 | > 2000 | < 500 | < 500 | < 500
12 | CN1C[C@@H](F)C[C@H]1COc1ncc2c3c(c(-c4ncc(F)c5sc(N)c(C#N)c45)c(F)c2n1)COC3 [Example 305, 2-Amino-7-fluoro-4-[5-fluoro-3-[[(2S,4S)-4-fluoro-1-methyl-pyrrolidin-2-yl]methoxy]-7,9-dihydrofuro[3,4-f]quinazolin-6-yl]thieno[3,2-c]pyridine-3-carbonitrile] | < 500 | > 2000 | > 2000 | < 500 | < 500 | < 500
13 | CN(C)CC1(COc2ncc3c4c(c(-c5ncc(F)c6sc(N)c(C#N)c56)c(F)c3n2)COC4)CC1 [Example 375, 2-Amino-4-[3-[[1-[(dimethylamino)methyl]cyclopropyl]methoxy]-5-fluoro-7,9-dihydrofuro[3,4-f]quinazolin-6-yl]-7-fluoro-thieno[3,2-c]pyridine-3-carbonitrile] | < 500 | > 2000 | > 2000 | < 500 | < 500 | < 500
14 | CN1CC[C@H]1COc1ncc2c3c(c(-c4ncc(F)c5sc(N)c(C#N)c45)c(F)c2n1)COC3 [Example 307, 2-Amino-7-fluoro-4-[5-fluoro-3-[[(2S)-1-methylazetidin-2-yl]methoxy]-7,9-dihydrofuro[3,4-f]quinazolin-6-yl]thieno[3,2-c]pyridine-3-carbonitrile] | < 500 | > 2000 | > 2000 | < 500 | < 500 | < 500
15 | N#Cc1c(N)sc2c(F)cnc(-c3c4c(c5cnc(OC[C@@]67CCCN6CC(F)(F)C7)nc5c3F)COC4)c12 [Example 298, 2-Amino-4-[3-[[(8S)-6,6-difluoro-2,3,5,7-tetrahydro-1H-pyrrolizin-8-yl]methoxy]-5-fluoro-7,9-dihydrofuro[3,4-f]quinazolin-6-yl]-7-fluoro-thieno[3,2-c]pyridine-3-carbonitrile] | < 500 | > 2000 | > 2000 | < 500 | < 500 | < 500
16 | CN1CCOC[C@H]1COc1ncc2c3c(c(-c4ncc(F)c5sc(N)c(C#N)c45)c(F)c2n1)COC3 [Example 301, 2-Amino-7-fluoro-4-[5-fluoro-3-[[(3S)-4-methylmorpholin-3-yl]methoxy]-7,9-dihydrofuro[3,4-f]quinazolin-6-yl]thieno[3,2-c]pyridine-3-carbonitrile] | < 500 | > 2000 | > 2000 | < 500 | < 500 | < 500
17 | CN1C[C@H](C(F)(F)F)C[C@H]1COc1ncc2c3c(c(-c4ncc(F)c5sc(N)c(C#N)c45)c(F)c2n1)COC3 [Example 296, 2-Amino-7-fluoro-4-[5-fluoro-3-[[(2S,4R)-1-methyl-4-(trifluoromethyl)pyrrolidin-2-yl]methoxy]-7,9-dihydrofuro[3,4-f]quinazolin-6-yl]thieno[3,2-c]pyridine-3-carbonitrile] | < 500 | > 2000 | > 2000 | < 500 | < 500 | < 500
18 | CO[C@@H]1C[C@@H](COc2ncc3c4c(c(-c5ncc(F)c6sc(N)c(C#N)c56)c(F)c3n2)COC4)N(C)C1 [Example 284, 2-Amino-7-fluoro-4-[5-fluoro-3-[[(2S,4R)-4-methoxy-1-methyl-pyrrolidin-2-yl]methoxy]-7,9-dihydrofuro[3,4-f]quinazolin-6-yl]thieno[3,2-c]pyridine-3-carbonitrile] | < 500 | > 2000 | > 2000 | < 500 | < 500 | < 500
